{
  "sequences": {"note": "Chains of the proteins cited; added tags and fusions are not shown. Lines headed by an entry give the natural chain unless they say otherwise; changes in a name come on top.", "UniProt P18054": "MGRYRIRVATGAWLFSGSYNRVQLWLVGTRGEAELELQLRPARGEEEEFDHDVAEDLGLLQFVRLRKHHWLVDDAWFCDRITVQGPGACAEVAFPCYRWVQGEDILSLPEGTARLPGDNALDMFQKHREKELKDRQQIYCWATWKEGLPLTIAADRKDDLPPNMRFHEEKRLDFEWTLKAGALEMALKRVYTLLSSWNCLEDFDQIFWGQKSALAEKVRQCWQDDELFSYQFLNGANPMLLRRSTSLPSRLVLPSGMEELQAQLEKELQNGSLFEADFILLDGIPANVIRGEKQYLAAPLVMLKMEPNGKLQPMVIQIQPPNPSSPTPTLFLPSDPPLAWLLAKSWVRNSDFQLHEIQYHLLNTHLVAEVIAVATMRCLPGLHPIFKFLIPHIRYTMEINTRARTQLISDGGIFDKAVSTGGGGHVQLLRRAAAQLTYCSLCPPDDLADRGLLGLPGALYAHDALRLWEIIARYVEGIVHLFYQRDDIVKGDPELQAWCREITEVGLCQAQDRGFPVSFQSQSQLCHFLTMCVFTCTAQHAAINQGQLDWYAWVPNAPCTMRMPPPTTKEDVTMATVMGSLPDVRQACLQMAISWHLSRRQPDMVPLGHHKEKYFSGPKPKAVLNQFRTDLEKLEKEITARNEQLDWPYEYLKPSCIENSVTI"},
  "source": "PubChem BioAssay AID1671190",
  "about": "(National Center for Advancing Translational Sciences (NCATS), 2021)",
  "note": "The campaign covered roughly 580,000 compounds. About 6,100 (1.1%) were called active. Inconclusive means that the source gave no clear call. Such entries were picked first, then a sample of the others. Calls come from the whole dose curve; as a rule, active = well fitted inhibition curve with a large enough effect; inconclusive = small, poorly fitted or top-dose-only effect, or another doubt; inactive = no such curve, though single readings can be large or run the other way. Where the call is inconclusive, the potency comes from a doubtful curve fit. % is set by controls: 0 for no effect and ±100 for the full control effect; potency is the fitted concentration of half-maximal effect.",
  "data": [
    {"molecular_target": "Polyunsaturated fatty acid lipoxygenase ALOX12 (Homo sapiens) (UniProt P18054)", "experiment": "Primary qHTS assay for inhibitors of human arachidonate 12S-lipoxygenase (ALOX12): Round 2", "conditions": "purified 12hLO, xylenol orange hydroperoxide absorbance; activity change, negative = inhibition: at 108 µM (top of the series) unless noted", "how_it_was_run": "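Hydroperoxide product was detected by ferrous iron/xylenol orange as the 573 to 405 nm absorbance ratio. Arachidonic acid at 40 uM (final) was turned over for 30 min at room temperature by 150 nM human 12hLO, pH 7.0 Hepes buffer, after 15 min compound preincubation.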", "values": [
      {"smiles": "O=C(c1cccc(C(F)(F)F)c1)N1CCOCC2(CN(Cc3cc(F)cc(F)c3)C2)C1", "Potency": "inconclusive: 4.47 µM [inhibitor, full curve, poor fit]"},
      {"smiles": "O=C(Nc1ccc(Cl)c([N+](=O)[O-])c1)c1ccc(NCCCN2CCOCC2)c([N+](=O)[O-])c1", "Potency": "inactive"},
      {"smiles": "CC(O)(c1ccc(F)c(F)c1)c1nc(-c2cccc(C#N)c2)cs1", "note": "(stereo not drawn)", "Potency": "inconclusive: 44.7 µM [inhibitor, partial curve, poor fit]"},
      {"smiles": "COc1ccc(Cl)cc1-c1ccc2c(c1)C(=O)N1C[C@@H](NS(=O)(=O)c3ccc(F)cc3)C[C@H]1C(=O)N2", "Potency": "inactive"},
      {"smiles": "Cc1occc1C(=O)Nc1nc(CC(=O)Nc2ccc(C(C)C)cc2)cs1", "Potency": "inconclusive: 126 µM [inhibitor, single point]"},
      {"smiles": "O=C1CCC2c3[nH]c4ccccc4c3CCN12", "note": "(stereo not drawn)", "Potency": "inconclusive: 56.2 µM [inhibitor, partial curve, poor fit]"},
      {"smiles": "Cc1ccc(-c2csc(NC(=O)c3ccc(S(=O)(=O)N4CCc5ccccc54)cc3)n2)cc1", "Potency": "inactive"},
      {"smiles": "Cc1nc(CNS(=O)(=O)c2ccc3ccccc3c2)cs1", "Potency": "inconclusive: 112 µM [inhibitor, single point]"},
      {"smiles": "Cc1ccc(/C=C/c2nc3ccccc3s2)s1", "Potency": "inconclusive: 89.1 µM [inhibitor, partial curve, poor fit]"},
      {"smiles": "CC(C)(c1ccc(OC(=O)c2ccccc2F)cc1)c1ccc(OC(=O)c2ccccc2F)cc1", "Potency": "inconclusive: 50.1 µM [inhibitor, single point]"},
      {"smiles": "COc1ccccc1CC(=O)Nc1ccc(-c2noc(COc3ccc(Br)cc3)n2)cc1", "Potency": "inactive"},
      {"smiles": "Cc1ccc(-c2nccn3cc(C(=O)NCCc4ccccn4)nc23)cc1", "Potency": "inconclusive: 7.94 µM [inhibitor, partial curve, poor fit]"},
      {"smiles": "O=[N+]([O-])c1cccc(-n2nnnc2CN2CCCC2)c1", "Potency": "inconclusive: 89.1 µM [inhibitor, single point]"},
      {"smiles": "CC1(C(=O)NS(=O)(=O)c2cccs2)CCN1C(=O)C1(c2ccc(Cl)cc2)CC1", "note": "(stereo not drawn)", "Potency": "inconclusive: 79.4 µM [inhibitor, partial curve, poor fit]"},
      {"smiles": "O=c1oc2ccccc2cc1-c1cn2cc(Cc3ccc(F)cc3)sc2n1", "Potency": "inactive"},
      {"smiles": "O=C(N/N=C/c1cccs1)c1cccc2ccccc12", "Potency": "inactive"},
      {"smiles": "O=C(Nc1ccccc1F)N1CC2CCC(C1)N2Cc1ccc(-c2cc(F)cc(F)c2)cc1", "Potency": "inconclusive: 35.5 µM [inhibitor, partial curve, poor fit]"},
      {"smiles": "CC(C)c1ccc(C(=O)NCCc2c[nH]c3ccccc23)cc1", "Potency": "inactive"},
      {"smiles": "Cc1sc2ncnc(N(C)CCc3ccccn3)c2c1C", "Potency": "inconclusive: 2.82 µM [inhibitor, full curve, poor fit]"},
      {"smiles": "COc1ccc(CNC(=O)C2CCN(C(=O)c3sccc3-n3cccc3)CC2)cc1", "Potency": "inactive"},
      {"smiles": "CNc1ccc(C(=O)N2CCN(S(=O)(=O)c3ccc4c(c3)OCCCO4)CC2)cc1[N+](=O)[O-]", "Potency": "inconclusive: 100 µM [inhibitor, single point]"},
      {"smiles": "CCc1cccc(NC(=O)CSc2nc(C)cs2)c1", "Potency": "inactive"},
      {"smiles": "CC(C)Cn1nc(C(=O)Nc2nc3c(s2)CN(Cc2ccccc2)CC3)c2ccccc2c1=O", "Potency": "inconclusive: 35.5 µM [inhibitor, single point]"},
      {"smiles": "CC1N/C(=C\\C(=O)c2ccccc2)N(O)C1(C)C", "note": "(stereo not drawn)", "Potency": "inconclusive: 50.1 µM [inhibitor, partial curve, poor fit]"},
      {"smiles": "O=C(O)C1CC=CCC1C(=O)N1CC=C(c2ccccc2)CC1", "note": "(stereo not drawn)", "Potency": "inconclusive: 44.7 µM [inhibitor, partial curve, poor fit]"},
      {"smiles": "COc1cc(OC)c(-n2cc(-c3ccc(Cl)cc3)[nH]c2=O)cc1Cl", "Potency": "inconclusive: 50.1 µM [inhibitor, partial curve, poor fit]"},
      {"smiles": "CC(NC(=O)c1ccc2c(c1)NC(=O)CS2)c1ccc2c(c1)OCO2", "note": "(stereo not drawn)", "Potency": "active: 14.1 µM"},
      {"smiles": "Cc1ccc(NS(=O)(=O)c2ccc(-c3csc(C)n3)s2)c(C)c1", "Potency": "inactive"},
      {"smiles": "COc1ccc(NC(=O)[C@@H]2C[C@@H](c3cccc(C(F)(F)F)c3)N(C)C2)cc1", "Potency": "inactive"},
      {"smiles": "FC(F)(F)c1nnc2sc(-c3cccs3)nn12", "Potency": "inactive"},
      {"smiles": "Cc1ccc(NC(=O)c2ccc3c(c2)NC(=O)c2ccccc2S3)c(Cl)c1", "activity change, negative = inhibition": "inconclusive: -37.7% [inhibitor]"},
      {"smiles": "COc1ccccc1CN1CCC(C)CC1", "Potency": "inconclusive: 0.708 µM [inhibitor, full curve, poor fit]"},
      {"smiles": "Cn1c(=O)c2c(nc(SCC(=O)Nc3ccccc3F)n2Cc2ccccc2F)n(C)c1=O", "Potency": "inconclusive: 56.2 µM [inhibitor, partial curve, poor fit]"},
      {"smiles": "Cc1c(-c2cccc(Cl)c2)nc2ccccc2c1C(=O)NC1CCCCCC1", "Potency": "inconclusive: 89.1 µM [inhibitor, single point]"},
      {"smiles": "O=C(Cn1nc(-c2cccs2)c2ccccc2c1=O)Nc1ccccc1", "Potency": "inactive"},
      {"smiles": "CCC(=O)N1CCC1(C)C(=O)Nc1cc(OC)ccc1OC", "note": "(stereo not drawn)", "Potency": "inconclusive: 2 µM [inhibitor, full curve, poor fit]"},
      {"smiles": "O=C(c1ccccc1)c1ccc(C(=O)N2CCN(c3ccc(O)cc3)CC2)cc1", "Potency": "inconclusive: 44.7 µM [inhibitor, partial curve, poor fit]"},
      {"smiles": "Cc1ccccc1NC(=O)Cn1nnc(S(=O)(=O)c2ccc(C(C)(C)C)cc2)c1N", "Potency": "inactive"},
      {"smiles": "Cc1ccc2oc(C(=O)NCc3ccc4c(c3)OCO4)cc(=O)c2c1", "Potency": "inconclusive: 44.7 µM [inhibitor, partial curve]"},
      {"smiles": "Cc1ccc(S(=O)(=O)N(C)C[C@@H]2OCCCC[C@@H](C)Oc3ccc(NS(=O)(=O)c4c(C)noc4C)cc3C(=O)N([C@H](C)CO)C[C@@H]2C)cc1", "Potency": "inconclusive: 63.1 µM [inhibitor, partial curve, poor fit]"},
      {"smiles": "COCCN1Cc2ccc(NCc3ccccc3)nc2C(C)(C(=O)N(C)CCOC)C1", "note": "(stereo not drawn)", "Potency": "inactive"},
      {"smiles": "O=C(c1cccc(F)c1)N1CCC2(CCCN(c3ncccn3)C2)CC1", "Potency": "inconclusive: 31.6 µM [inhibitor, single point]"},
      {"smiles": "CCOC(=O)C1CCN(CC(C)(C)NS(=O)(=O)c2ccc(Cl)cc2)CC1", "Potency": "inconclusive: 20 µM [inhibitor, partial curve, poor fit]"}
    ]}
  ]
}
